## Melanoma cell counts after drug treatment

Compounds and concentrations:
vincristine: CC[C@]1(O)C[C@H]2CN(CCc3c([nH]c4ccccc34)[C@@](C(=O)OC)(c3cc4c(cc3OC)N(C=O)[C@H]3[C@@](O)(C(=O)OC)[C@H](OC(C)=O)[C@]5(CC)C=CCN6CC[C@]43[C@@H]65)C2)C1 at 0.0005 µM
GW0742: Cc1cc(SCc2sc(-c3ccc(C(F)(F)F)c(F)c3)nc2C)ccc1OCC(=O)O at 10 µM
tipifarnib: Cn1cncc1[C@@](N)(c1ccc(Cl)cc1)c1ccc2c(c1)c(-c1cccc(Cl)c1)cc(=O)n2C at 0.05 µM
T0901317: O=S(=O)(c1ccccc1)N(CC(F)(F)F)c1ccc(C(O)(C(F)(F)F)C(F)(F)F)cc1 at 7 µM
tamatinib: COc1cc(Nc2ncc(F)c(Nc3ccc4c(n3)NC(=O)C(C)(C)O4)n2)cc(OC)c1OC at 2 µM
A-769662: N#Cc1c(O)c2c(-c3ccc(-c4ccccc4O)cc3)csc2[nH]c1=O at 10 µM
SNS-032: CC(C)(C)c1cnc(CSc2cnc(NC(=O)C3CCNCC3)s2)o1 at 0.05 µM
ruxolitinib: N#CC[C@H](C1CCCC1)n1cc(-c2ncnc3[nH]ccc23)cn1 at 5 µM
MK-2206: NC1(c2ccc(-c3nc4ccn5c(=O)[nH]nc5c4cc3-c3ccccc3)cc2)CCC1 at 2 µM
nutlin-3: COc1ccc(C2=N[C@@H](c3ccc(Cl)cc3)[C@@H](c3ccc(Cl)cc3)N2C(=O)N2CCNC(=O)C2)c(OC(C)C)c1 at 0.5 µM
ZM336372: Cc1ccc(NC(=O)c2cccc(N(C)C)c2)cc1NC(=O)c1ccc(O)cc1 at 10 µM
PF-04217903: OCCn1cc(-c2cnc3nnn(Cc4ccc5ncccc5c4)c3n2)cn1 at 5 µM
ENMD-2076: Cc1cc(Nc2cc(N3CCN(C)CC3)nc(/C=C/c3ccccc3)n2)n[nH]1 at 0.2 µM
fludarabine: Nc1nc(F)nc2c1ncn2[C@@H]1O[C@H](CO)[C@@H](O)[C@@H]1O at 1 µM
dasatinib: Cc1nc(Nc2ncc(C(=O)Nc3c(C)cccc3Cl)s2)cc(N2CCN(CCO)CC2)n1 at 0.02 µM
SU6656: CN(C)S(=O)(=O)c1ccc2c(c1)/C(=C/c1cc3c([nH]1)CCCC3)C(=O)N2 at 2 µM
U73122: COc1ccc2c(c1)CCC1C2CCC2(C)C(NCCCCCCN3C(=O)C=CC3=O)CCC12 (stereo not shown) at 2 µM
GW9662: O=C(Nc1ccccc1)c1cc([N+](=O)[O-])ccc1Cl at 10 µM
AS-252424: O=C1NC(=O)/C(=C/c2ccc(-c3ccc(F)cc3O)o2)S1 at 5 µM
AZD7762: NC(=O)Nc1cc(-c2cccc(F)c2)sc1C(=O)N[C@H]1CCCNC1 at 0.1 µM

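Human melanoma cell lines in 1,536-well plates were treated with two drugs together for 72 h, then fixed, stained and imaged. Values are the number of DAPI-stained nuclei as a percentage of the DMSO control: 100 is no effect, lower means fewer cells. Concentrations were fixed for each drug; these are the higher of two levels. The file gives one value for each pair and line, without errors, so small differences may be noise.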 An unselected part of the screen is shown.

Combination | C32
tipifarnib + U73122 | 75.1
ENMD-2076 + GW0742 | 82.4
fludarabine + ENMD-2076 | 84.9
A-769662 + tamatinib | 84.5
ZM336372 + A-769662 | 92.2
tipifarnib + T0901317 | 83.2
AZD7762 + T0901317 | 79.6
T0901317 + ENMD-2076 | 79.1
AZD7762 + GW9662 | 58.9
GW0742 + nutlin-3 | 64.4
dasatinib + AS-252424 | 78.4
tamatinib + ruxolitinib | 69.2
dasatinib + T0901317 | 56.3
dasatinib + ruxolitinib | 71.8
U73122 + dasatinib | 74.8
MK-2206 + GW0742 | 83.7
SNS-032 + PF-04217903 | 86.7
SU6656 + T0901317 | 81.3
A-769662 + SU6656 | 102
tipifarnib + ruxolitinib | 98.5
nutlin-3 + U73122 | 61.9
ENMD-2076 + U73122 | 76.2
GW9662 + tamatinib | 95.1
GW9662 + ENMD-2076 | 90.4
ENMD-2076 + MK-2206 | 100
vincristine + SU6656 | 49.3
PF-04217903 + vincristine | 86.8
AS-252424 + ENMD-2076 | 78.5
PF-04217903 + ZM336372 | 115
PF-04217903 + ruxolitinib | 100
SU6656 + SNS-032 | 63.0
GW0742 + ruxolitinib | 91.5
AS-252424 + SNS-032 | 76.8
AS-252424 + SU6656 | 88.6

Repeated from the top, 4 entries:

{"combination": "tipifarnib + U73122", "C32": 75.1}
{"combination": "ENMD-2076 + GW0742", "C32": 82.4}
{"combination": "fludarabine + ENMD-2076", "C32": 84.9}
{"combination": "A-769662 + tamatinib", "C32": 84.5}

Values as published with doi:10.1371/journal.pone.0140310, rounded.